In patent US20180057553A1, “CONJUGATE AND USE THEREOF” (The University of Tokyo, priority 2015, published 2018):
Results are given in words; binding and its absence hold for the method and conditions named. Some entries that bind do so weakly or less than the wild type.

Chains of the proteins cited; added tags and fusions are not shown. Residues count along the entry.
UniProt P01375, residues 77-233: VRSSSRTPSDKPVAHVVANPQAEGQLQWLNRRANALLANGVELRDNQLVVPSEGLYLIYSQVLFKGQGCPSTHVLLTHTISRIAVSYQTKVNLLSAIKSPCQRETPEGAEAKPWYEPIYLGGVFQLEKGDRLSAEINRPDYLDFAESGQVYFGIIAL

Legend:
[1] = molecular target: recombinant human TNF-alpha (Life Technologies) (human) (UniProt P01375); assay: depletion of TNF-alpha from medium with the conjugate and diol Sepharose beads; remaining TNF-alpha measured by ELISA
[2] = molecular target: recombinant human TNF-alpha (Life Technologies) (human) (UniProt P01375); assay: SPR (Biacore)
[3] = molecular target: recombinant human TNF-alpha (Life Technologies) (human) (UniProt P01375); assay: depletion assay: serially diluted conjugate mixed with human TNF-alpha (100% = 6.2 ng/mL), complex adsorbed on diol Sepharose beads, TNF-alpha remaining in the supernatant measured by ELISA; 2nd experiment
[4] = molecular target: recombinant human TNF-alpha (Life Technologies) (human) (UniProt P01375); assay: Biacore SPR: conjugate fixed to the sensor chip via an amino group, recombinant human TNF-alpha as analyte at 0.78-100 nM
[5] = molecular target: recombinant human TNF-alpha (Life Technologies) (human) (UniProt P01375); assay: depletion assay: serially diluted conjugate mixed with human TNF-alpha (100% = 6.2 ng/mL), complex adsorbed on diol Sepharose beads, TNF-alpha remaining in the supernatant measured by ELISA; 1st experiment

- binding [1]: binds
- binding [2]: binds
- binding [3]: binds
- binding [4]: binds
- binding [5]: binds
B1: conjugate of the extracellular region of human TNF receptor 2 (TNFR2) and mutant recombinant human intelectin-1 (S165A) (receptor)
chain: LPAQVAFTPYAPEPGSTCRLREYYDQTAQMCCSKCSPGQHAKVFCTKTSDTVCDSCEDSTYTQLWNWVPECLSCGSRCSSDQVETQACTREQNRICTCRPGWYCALSKQEGCRLCAPLRKCRPGFGVARPGTETSDVVCKPCAPGTFSNTTSSTDICRPHQICNVVAIPGNASMDAVCTSTSPTRSMAPGAVHLPQPVSTRSQHTQPTPEPSTAPSTSFLLPMGPSPPAEGSTGDGTDEANTYFKEWTCSSSPSLPRSCKEIKDECPSAFDGLYFLRTENGVIYQTFCDMTSGGGGWTLVASVHENDMRGKCTVGDRWSSQQGSKADYPEGDGNWANYNTFGSAEAATSDDYKNPGYYDIQAKDLGIWHVPNKSPMQHWRNSALLRYRTDTGFLQTLGHNLFGIYQKYPVKYGEGKCWTDNGPVIPVVYDFGDAQKTASYYSPYGQREFTAGFVQFRVFNNERAANALCAGMRVTGCNTEHHCIGGGGYFPEASPQQCGDFSGFDWSGYGTHVGYSSSREITEAAVLLFYR
